Source: US20250082768 (published 2025)

Experiment: general procedure: Fmoc solid-phase peptide synthesis; Merck LL MHBA low-loading Rink amide resin (0.308 mmol/g, 100-200 mesh); HATU/DIPEA
Details: conjugation step

## DBCO-PEG5-PEG2-Glu(-PEG4-Val-Cit-PABC-MMAE)-PEG2-PEG2-Glu(-PEG4-Val-Cit-PABC-MMAE)-NH2
  conjugation yield: 16%
